Results are given in words; binding and its absence hold for the method and conditions named. In cells and extracts the contact can be indirect. Tags and fused reporters may be left off the sequences shown.

Experiment [1] addresses T1, human iRhom1 (Rhbdf1), C-terminal triple HA tag (human) (UniProt Q96CC6).
T1 sequence: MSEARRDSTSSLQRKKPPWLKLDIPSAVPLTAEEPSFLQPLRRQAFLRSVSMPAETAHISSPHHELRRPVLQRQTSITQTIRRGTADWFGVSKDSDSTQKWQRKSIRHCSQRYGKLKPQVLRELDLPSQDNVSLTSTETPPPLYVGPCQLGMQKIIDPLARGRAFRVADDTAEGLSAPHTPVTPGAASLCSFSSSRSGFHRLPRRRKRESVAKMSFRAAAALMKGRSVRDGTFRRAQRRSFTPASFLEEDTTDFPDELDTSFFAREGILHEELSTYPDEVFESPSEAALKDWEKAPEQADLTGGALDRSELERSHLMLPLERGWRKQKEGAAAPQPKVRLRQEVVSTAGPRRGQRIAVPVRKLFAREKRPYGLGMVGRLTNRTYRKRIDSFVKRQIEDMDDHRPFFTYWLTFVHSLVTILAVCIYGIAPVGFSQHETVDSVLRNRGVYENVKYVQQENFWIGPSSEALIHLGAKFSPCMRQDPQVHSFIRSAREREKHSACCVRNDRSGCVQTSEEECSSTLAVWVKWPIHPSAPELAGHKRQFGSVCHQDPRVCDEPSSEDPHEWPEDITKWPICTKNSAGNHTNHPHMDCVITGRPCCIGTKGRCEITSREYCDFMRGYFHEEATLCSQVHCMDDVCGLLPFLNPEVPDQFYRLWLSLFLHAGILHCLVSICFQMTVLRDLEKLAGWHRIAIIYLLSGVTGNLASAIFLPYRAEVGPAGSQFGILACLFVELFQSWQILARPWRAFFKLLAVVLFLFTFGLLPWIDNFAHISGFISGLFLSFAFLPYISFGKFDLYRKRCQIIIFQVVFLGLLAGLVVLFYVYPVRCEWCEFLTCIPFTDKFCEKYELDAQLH
Description: co-IP; HA-tagged iRhoms and FLAG-tagged proteins coexpressed in HEK293 ET cells; lysis in 1% Triton X-100, 150 mM NaCl, 50 mM Tris-HCl pH 7.4; iRhoms immunoprecipitated with anti-HA affinity gel, 1 h at 4°C; washes with 300 mM NaCl; FLAG-tagged co-precipitated proteins detected by Western blot.

In experiment [2] the target is T2, mouse iRhom2 (Rhbdf2), C-terminal triple HA tag (mouse) (UniProt Q80WQ6).
T2 sequence: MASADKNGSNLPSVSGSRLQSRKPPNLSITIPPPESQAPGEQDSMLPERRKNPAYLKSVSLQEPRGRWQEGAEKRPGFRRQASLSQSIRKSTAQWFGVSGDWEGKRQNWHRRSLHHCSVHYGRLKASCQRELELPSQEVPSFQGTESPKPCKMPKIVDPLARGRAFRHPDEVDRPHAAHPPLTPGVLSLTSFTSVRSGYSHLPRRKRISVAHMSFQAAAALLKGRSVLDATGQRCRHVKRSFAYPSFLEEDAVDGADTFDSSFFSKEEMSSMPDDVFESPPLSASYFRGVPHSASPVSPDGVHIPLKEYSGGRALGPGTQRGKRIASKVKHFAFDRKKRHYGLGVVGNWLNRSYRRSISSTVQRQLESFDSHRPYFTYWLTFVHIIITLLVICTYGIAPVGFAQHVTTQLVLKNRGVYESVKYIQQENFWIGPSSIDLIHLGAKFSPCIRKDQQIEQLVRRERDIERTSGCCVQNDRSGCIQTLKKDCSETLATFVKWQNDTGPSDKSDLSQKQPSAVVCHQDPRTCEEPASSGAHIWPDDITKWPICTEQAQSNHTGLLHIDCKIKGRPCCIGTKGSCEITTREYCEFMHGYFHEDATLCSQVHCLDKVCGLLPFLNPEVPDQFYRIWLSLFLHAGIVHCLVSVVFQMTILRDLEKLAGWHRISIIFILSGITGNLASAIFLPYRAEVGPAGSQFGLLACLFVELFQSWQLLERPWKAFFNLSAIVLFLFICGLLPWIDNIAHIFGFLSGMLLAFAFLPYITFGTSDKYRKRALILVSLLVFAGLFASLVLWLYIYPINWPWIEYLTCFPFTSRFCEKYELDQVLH
The description is as above.

On to Flag-tagged mouse TGN36, for which the binding result in experiment [1] and in experiment [2] was “no binding” each time.
